Measured data: PubChem BioAssay AID652243 (Drosophila RNAi Screening Center, 2013)

- Screen: 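Fly genes required for human androgen receptor driven transcription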 (primary screen)
- System: Drosophila S2R+ cells
- Reagents: long dsRNA against Drosophila genes
- Timing: 72 h (48 h, then 24 h hormone)
- Treatment: synthetic androgen R1881 at 10 nM for 24 h
- Measured: 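Per-well raw luminescence of the androgen-driven firefly reporter and of the Renilla control, two replicates each, without normalisation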
- Scale: firefly reporter light: higher = more light from androgen-responsive reporter; Renilla control light: higher = more constitutive control signal (cell number, transfection)
- Active means: 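Across duplicate plates, a knock-down whose log firefly/Renilla ratio shifted a set fold down or up from the GFP/LacZ control mean was a hit; the downward cut appears as both 1.5 and 3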
- Meaning of the calls: active = hit: reporter lowered or raised; inactive = no hit
In all, the deposit lists about 24,000 reagents; this is a random part of those that have a named target and a result. Over the whole deposit, 246 (1%) are marked active. 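Plates not normalised; calls are printed but the firefly/Renilla ratio behind them is not deposited; fold cut for lowering reported inconsistently.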 Raw values vary from plate to plate and are shown uncorrected. Unmarked entries are inactive. A plus sign joins genes that one reagent is predicted to hit. Reagent sequences are not shown. The record does not give: the amount of reagent.

Target gene | DRSC id | firefly reporter light, replicate 1 | firefly reporter light, replicate 2 | Renilla control light, replicate 1 | Renilla control light, replicate 2
CG13562 (GeneID 37797) | DRSC04200 | 2.48e5 | 2.67e5 | 2.03e6 | 1.99e6
CG13562 (GeneID 37797) | DRSC28501 | 3.11e5 | 4.38e5 | 5.52e5 | 1.46e6
mRpS33 (GeneID 41991) | DRSC14239 | 1.99e5 | 1.93e5 | 3.08e6 | 2.53e6
TTLL1B (GeneID 326203) | DRSC08594 | 1.25e5 | 1.18e5 | 1.40e6 | 1.90e6
btz (GeneID 43331) | DRSC14566 | 18207 | 13502 | 1.81e5 | 1.36e5
btz (GeneID 43331) | DRSC23613 | 9.91e5 | 7.88e5 | 1.17e6 | 9.03e5
CG31820 (GeneID 318961) | DRSC21318 | 6.33e5 | 5.75e5 | 2.56e6 | 2.29e6
CG31820 (GeneID 318961) | DRSC29683 | 1.43e6 | 1.09e6 | 2.29e6 | 1.82e6
Prx3 (GeneID 42109) | DRSC15883 | 1.03e5 | 69344 | 7.92e5 | 6.35e5
Prx3 (GeneID 42109) | DRSC29107 | 9.33e5 | 6.05e5 | 1.53e6 | 1.29e6
lncRNA:bxd (GeneID 3772220) | DRSC13176 | 6.73e5 | 6.38e5 | 1.38e6 | 1.49e6
lncRNA:bxd (GeneID 3772220) | DRSC28062 | 9.37e5 | 8.78e5 | 1.76e6 | 1.77e6
lncRNA:bxd (GeneID 3772220) | DRSC39127 | 7.49e5 | 7.30e5 | 1.71e6 | 2.06e6
snRNA:U1:95Cc + CG43285 (retired record) | DRSC13640 | 38224 | 17039 | 67810 | 1.24e5
Hr96 (GeneID 42993) | DRSC16707 | 86940 | 79878 | 6.55e5 | 5.87e5
CG11550 (GeneID 43731) | DRSC14326 | 2.00e5 | 1.60e5 | 2.13e6 | 2.19e6

Reprinted from the listing, 2 entries:
Target gene | DRSC id | firefly reporter light, replicate 1 | firefly reporter light, replicate 2 | Renilla control light, replicate 1 | Renilla control light, replicate 2
lncRNA:bxd (GeneID 3772220) | DRSC39127 | 7.49e5 | 7.30e5 | 1.71e6 | 2.06e6
snRNA:U1:95Cc + CG43285 (retired record) | DRSC13640 | 38224 | 17039 | 67810 | 1.24e5
